From patent publication US20100311759A1, “ANTIPARASITIC AGENT FOR FISH AND METHOD OF CONTROLLING PROLIFERATION OF FISH PARASITES” (NIPPON SUISAN KAISHA, LTD., priority 2007, published 2010) come the findings set out here.

Molecules are shown by their SMILES.

In the assay the test system is Cryptocaryon irritans. Put plainly: Examples 3 and 4: oral administration of single inhibitors and a combination, body length of Cryptocaryon irritans on Pagrus major (FIG. 4). The conditions noted are these: 300 mg/kg fish body weight/day for three days; 60 parasites per plot; P≦0.01. The format is in vivo. An excerpt: During the rearing period, 1.4 liters/min. of seawater was supplied. […] After exposure, seven fish each were moved into six 100-liter aquariums. During the rearing period, 1.4 liters/min. of seawater was supplied. […] Experimental plot: […]

With `Cc1cc(NS(=O)(=O)c2ccc(N)cc2)no1` [sulfamethoxazole], the “growth rate of parasites (body length as percentage of control plot), difference from control plot” value is “statistically significant difference”.
